# Results from PMC13446905.
# Protein sequences, listed by entry. Tags and fused reporters are not part of them.
# UniProt Q5S007: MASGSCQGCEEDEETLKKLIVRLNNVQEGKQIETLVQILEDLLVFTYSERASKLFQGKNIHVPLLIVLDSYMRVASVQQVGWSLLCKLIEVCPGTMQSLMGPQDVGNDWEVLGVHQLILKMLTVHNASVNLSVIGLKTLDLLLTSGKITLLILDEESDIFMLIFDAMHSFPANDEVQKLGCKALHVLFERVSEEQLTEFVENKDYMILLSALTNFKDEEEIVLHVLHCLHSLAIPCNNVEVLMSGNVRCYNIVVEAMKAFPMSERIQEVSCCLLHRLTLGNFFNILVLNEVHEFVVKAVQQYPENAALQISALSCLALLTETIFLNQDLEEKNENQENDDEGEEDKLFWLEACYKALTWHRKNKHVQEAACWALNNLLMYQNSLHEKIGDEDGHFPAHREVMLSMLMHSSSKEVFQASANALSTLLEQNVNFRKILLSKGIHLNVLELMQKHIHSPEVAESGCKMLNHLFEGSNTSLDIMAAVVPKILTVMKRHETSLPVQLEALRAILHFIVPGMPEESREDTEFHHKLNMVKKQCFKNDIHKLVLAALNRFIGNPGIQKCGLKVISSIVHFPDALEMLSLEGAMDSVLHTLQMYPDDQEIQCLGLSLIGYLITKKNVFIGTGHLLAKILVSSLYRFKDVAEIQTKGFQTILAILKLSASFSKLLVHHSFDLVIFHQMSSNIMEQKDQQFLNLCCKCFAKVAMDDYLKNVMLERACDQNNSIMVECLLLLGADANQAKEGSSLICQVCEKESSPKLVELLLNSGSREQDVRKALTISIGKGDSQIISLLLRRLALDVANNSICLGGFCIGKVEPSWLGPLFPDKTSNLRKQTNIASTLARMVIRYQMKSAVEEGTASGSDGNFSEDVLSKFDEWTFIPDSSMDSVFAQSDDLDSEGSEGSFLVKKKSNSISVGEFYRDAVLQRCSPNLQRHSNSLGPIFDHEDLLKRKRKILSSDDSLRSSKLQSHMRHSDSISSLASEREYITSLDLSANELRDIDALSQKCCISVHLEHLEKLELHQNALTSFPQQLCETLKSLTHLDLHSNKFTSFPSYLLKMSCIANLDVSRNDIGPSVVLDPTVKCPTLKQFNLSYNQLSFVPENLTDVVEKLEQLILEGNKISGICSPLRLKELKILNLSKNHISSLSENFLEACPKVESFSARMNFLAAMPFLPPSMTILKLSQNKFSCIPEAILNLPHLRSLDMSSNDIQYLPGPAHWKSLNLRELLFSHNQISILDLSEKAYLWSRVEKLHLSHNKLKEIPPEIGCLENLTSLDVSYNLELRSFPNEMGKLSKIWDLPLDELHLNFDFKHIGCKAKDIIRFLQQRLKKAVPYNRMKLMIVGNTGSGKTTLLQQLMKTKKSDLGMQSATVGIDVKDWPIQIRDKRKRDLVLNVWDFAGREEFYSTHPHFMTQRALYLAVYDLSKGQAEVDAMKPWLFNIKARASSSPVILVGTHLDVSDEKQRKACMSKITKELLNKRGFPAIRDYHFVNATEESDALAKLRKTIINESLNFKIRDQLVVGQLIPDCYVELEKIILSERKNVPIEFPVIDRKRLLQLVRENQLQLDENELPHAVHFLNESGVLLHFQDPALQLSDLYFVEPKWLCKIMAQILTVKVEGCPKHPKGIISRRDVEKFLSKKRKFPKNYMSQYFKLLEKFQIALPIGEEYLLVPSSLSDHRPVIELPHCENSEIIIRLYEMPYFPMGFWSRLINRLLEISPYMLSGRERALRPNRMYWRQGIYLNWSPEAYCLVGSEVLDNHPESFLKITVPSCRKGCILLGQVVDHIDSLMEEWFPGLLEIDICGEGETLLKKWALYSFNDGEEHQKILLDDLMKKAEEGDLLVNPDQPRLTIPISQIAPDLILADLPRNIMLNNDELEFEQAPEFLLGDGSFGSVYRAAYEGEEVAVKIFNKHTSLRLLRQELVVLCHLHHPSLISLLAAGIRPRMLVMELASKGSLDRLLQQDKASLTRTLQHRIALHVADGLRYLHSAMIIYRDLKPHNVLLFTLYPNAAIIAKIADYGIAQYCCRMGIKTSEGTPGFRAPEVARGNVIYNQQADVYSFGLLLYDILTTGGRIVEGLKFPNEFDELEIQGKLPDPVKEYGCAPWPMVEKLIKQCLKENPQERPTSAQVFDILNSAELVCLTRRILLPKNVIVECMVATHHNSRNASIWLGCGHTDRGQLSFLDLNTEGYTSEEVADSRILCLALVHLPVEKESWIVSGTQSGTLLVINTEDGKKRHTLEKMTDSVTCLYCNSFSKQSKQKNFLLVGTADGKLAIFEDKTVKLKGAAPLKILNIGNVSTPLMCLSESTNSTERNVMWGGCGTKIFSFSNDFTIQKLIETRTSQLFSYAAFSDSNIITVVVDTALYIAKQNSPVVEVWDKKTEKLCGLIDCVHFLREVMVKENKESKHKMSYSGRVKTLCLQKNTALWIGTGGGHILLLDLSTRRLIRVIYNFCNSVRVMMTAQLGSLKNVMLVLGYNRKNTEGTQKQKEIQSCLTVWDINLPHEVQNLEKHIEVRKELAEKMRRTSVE
# UniProt P12814: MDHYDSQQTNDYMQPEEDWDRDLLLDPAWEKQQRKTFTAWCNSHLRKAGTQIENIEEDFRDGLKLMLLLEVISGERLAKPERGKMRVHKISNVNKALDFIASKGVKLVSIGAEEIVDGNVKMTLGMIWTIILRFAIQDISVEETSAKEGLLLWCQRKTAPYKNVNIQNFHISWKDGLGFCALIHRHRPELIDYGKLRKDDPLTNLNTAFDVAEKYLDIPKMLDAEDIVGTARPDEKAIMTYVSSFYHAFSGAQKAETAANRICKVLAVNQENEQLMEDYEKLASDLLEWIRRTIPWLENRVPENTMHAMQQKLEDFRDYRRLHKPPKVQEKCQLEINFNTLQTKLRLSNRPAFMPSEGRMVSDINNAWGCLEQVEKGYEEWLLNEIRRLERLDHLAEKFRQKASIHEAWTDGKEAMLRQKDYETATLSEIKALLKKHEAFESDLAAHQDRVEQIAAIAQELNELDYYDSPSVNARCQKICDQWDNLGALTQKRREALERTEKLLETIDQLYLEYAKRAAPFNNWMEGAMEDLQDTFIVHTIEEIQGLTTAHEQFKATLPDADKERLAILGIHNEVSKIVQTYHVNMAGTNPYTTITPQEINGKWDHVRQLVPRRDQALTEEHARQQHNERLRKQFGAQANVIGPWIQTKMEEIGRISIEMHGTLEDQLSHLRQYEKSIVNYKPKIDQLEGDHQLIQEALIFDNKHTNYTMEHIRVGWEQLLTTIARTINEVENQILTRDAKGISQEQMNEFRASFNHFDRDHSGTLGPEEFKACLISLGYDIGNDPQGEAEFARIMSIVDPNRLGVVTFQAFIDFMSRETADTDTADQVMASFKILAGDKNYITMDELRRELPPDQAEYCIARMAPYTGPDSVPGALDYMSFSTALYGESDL
# UniProt Q15365: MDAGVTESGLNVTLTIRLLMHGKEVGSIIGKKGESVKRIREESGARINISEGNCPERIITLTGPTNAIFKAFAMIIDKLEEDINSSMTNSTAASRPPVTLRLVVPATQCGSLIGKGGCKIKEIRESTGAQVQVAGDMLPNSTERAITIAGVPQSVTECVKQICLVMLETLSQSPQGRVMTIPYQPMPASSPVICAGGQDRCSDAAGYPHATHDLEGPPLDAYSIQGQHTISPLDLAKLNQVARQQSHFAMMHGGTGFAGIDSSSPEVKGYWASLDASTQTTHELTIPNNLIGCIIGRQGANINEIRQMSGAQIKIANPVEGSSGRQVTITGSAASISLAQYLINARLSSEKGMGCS
# UniProt P23528: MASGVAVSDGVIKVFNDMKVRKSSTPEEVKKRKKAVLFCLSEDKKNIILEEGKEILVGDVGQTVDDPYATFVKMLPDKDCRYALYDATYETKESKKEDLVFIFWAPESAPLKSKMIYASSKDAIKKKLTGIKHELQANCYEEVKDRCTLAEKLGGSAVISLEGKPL
# UniProt P21333: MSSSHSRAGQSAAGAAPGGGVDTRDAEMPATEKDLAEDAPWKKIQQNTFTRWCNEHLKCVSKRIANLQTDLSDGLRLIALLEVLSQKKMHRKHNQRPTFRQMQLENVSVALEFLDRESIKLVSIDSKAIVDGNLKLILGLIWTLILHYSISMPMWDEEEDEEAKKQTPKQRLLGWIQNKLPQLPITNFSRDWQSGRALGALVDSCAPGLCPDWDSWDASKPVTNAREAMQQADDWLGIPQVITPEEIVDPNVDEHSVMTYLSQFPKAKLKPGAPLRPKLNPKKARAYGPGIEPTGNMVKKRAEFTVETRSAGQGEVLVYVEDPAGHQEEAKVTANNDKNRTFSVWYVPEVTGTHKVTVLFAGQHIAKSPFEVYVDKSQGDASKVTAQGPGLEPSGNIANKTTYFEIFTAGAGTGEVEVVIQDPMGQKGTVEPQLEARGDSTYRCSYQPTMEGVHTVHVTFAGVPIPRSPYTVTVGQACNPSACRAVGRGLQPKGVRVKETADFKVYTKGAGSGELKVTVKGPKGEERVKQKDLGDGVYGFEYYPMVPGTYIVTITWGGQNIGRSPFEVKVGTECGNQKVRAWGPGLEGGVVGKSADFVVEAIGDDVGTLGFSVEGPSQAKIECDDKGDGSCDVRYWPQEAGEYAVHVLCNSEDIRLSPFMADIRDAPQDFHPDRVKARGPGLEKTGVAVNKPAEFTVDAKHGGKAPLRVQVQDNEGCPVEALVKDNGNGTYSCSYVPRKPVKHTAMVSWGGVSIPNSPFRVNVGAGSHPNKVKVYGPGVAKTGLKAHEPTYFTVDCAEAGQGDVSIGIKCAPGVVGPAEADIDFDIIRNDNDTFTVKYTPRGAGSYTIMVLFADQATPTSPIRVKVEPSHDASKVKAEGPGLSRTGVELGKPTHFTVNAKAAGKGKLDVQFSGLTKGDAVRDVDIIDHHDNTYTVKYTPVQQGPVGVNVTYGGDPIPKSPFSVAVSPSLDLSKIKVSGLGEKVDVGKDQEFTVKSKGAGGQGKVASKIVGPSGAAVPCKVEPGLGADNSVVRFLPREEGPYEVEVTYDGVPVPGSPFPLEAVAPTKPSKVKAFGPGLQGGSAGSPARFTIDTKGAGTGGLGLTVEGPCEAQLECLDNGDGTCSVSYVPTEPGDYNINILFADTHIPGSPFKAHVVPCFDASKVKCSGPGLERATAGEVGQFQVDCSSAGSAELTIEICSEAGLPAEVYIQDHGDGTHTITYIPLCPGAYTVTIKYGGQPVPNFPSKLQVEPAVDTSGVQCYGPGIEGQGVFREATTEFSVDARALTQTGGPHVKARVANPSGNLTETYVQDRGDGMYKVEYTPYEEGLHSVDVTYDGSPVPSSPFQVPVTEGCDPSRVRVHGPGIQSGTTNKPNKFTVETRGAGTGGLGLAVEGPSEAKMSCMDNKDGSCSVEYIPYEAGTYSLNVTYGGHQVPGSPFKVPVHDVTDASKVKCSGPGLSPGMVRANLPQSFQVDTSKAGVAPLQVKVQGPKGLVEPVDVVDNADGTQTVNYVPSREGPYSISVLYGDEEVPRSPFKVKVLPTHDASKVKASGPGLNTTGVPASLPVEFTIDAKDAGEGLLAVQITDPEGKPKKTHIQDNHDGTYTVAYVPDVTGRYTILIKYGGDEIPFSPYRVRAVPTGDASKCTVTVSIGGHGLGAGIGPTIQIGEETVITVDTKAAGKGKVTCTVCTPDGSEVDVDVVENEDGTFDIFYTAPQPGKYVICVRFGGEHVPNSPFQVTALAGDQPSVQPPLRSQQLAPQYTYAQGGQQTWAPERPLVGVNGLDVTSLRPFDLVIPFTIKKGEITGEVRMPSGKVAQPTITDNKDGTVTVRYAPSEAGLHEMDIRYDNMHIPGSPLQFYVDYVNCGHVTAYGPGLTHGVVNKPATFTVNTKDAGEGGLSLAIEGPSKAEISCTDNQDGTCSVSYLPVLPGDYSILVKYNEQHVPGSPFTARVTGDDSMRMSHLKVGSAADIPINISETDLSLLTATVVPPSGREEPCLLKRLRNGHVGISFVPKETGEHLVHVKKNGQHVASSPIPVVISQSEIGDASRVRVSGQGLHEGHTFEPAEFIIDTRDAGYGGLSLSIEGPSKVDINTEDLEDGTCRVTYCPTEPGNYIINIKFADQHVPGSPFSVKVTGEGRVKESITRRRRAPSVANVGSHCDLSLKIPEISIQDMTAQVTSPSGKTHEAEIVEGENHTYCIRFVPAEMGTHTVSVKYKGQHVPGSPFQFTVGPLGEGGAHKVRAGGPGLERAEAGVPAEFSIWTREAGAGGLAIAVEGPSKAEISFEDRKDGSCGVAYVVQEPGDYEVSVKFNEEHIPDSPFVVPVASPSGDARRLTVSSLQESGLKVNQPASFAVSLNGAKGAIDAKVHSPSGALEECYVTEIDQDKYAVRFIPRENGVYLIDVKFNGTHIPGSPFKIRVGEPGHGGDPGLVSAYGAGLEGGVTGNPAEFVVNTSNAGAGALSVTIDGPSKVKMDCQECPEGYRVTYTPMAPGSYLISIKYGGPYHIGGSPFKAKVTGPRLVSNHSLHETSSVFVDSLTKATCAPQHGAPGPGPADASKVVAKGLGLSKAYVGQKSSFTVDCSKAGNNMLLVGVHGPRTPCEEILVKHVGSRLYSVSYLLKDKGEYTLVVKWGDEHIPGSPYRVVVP
# Results are given in words; binding and its absence hold for the method and conditions named. Binding seen in cells or lysates may run through a third protein. Here binding means that the protein was enriched with, or labelled near, the bait; the list need not be complete.
# Molecular target: GFP-LRRK2 wild-type (UniProt Q5S007)
# Assay: affinity purification with mass spectrometry; GFP-TrapA beads, overnight at 4 °C, lysates of RA-differentiated SH-SY5Y cells stably expressing GFP-LRRK2 (or GFP control), unstimulated or stimulated with 100 ng/mL BDNF for 15 min; lysis buffer 20 mM Tris-HCl pH 7.5, 150 mM NaCl, 1 mM EDTA, 1% Tween 20; ten washes; LC-MS/MS
row,binding,Substance
1,binds,ACTN1 (from UniProt P12814 1-892)
2,binds,PCBP1 (from UniProt Q15365 1-356)
3,binds,Eef1d (from UniProt P29692 1-281)
4,binds,EEF1A2 (from UniProt Q05639 1-463)
5,binds,CFL1 (from UniProt P23528 1-166)
6,binds,FLNA (from UniProt P21333 1-2647)
7,binds,drebrin (from UniProt Q16643 1-649)
